The supplement of paper PMC10470496
Several values for one entry are separate records, joined by “and”; a condition that tells them apart may be missing. Equal values may be shown once. Where a name gives a salt, the structure may show the parent alone. This is one part of the list. Many values rest on one well or one pass, so single values are uncertain.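 The three strains are clinical Candida auris isolates from the CDC resistance isolate bank, from clades III, IV and I, grown in RPMI-1640 at 35°C. Growth is background-corrected OD600 relative to vehicle-only wells on the same plate; a hit meant over 50% inhibition in at least two strains plus a plate-corrected B-score above 0.1.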

Experiments:
Test in all cases: growth relative to vehicle control (OD600 ratio) (fraction); higher = less inhibition
Settings in all cases: 24 h
C. auris AR-384 = system: C. auris AR-384
C. auris AR-386 = system: C. auris AR-386
C. auris AR-387 = system: C. auris AR-387

Row | SMILES | growth (C. auris AR-384; 1 µM) | growth (C. auris AR-384; 10 µM) | growth (C. auris AR-386; 1 µM) | growth (C. auris AR-386; 10 µM) | growth (C. auris AR-387; 1 µM) | growth (C. auris AR-387; 10 µM)
1 | CCCCCCCCCCCC[N+](C)(C)CCOc1ccccc1 [Domiphen Bromide] | 1.11 | 0.6 | 1.12 | 0.11 | 0.81 | 1.54
2 | COC(=O)[C@@H]1CC2=CC(=O)CC[C@]2(C)[C@@]23O[C@@H]2C[C@@]2(C)[C@@H](CC[C@@]24CCC(=O)O4)[C@H]13 [Eplerenone] | 0.97 | 1.21 | 1.17 | 1.53 | 1.12 | 1.34
3 | CC(=O)NCCCS(=O)(=O)O [Acamprosate Calcium] | 0.74 | 0.64 | 0.62 | 0.78 | 0.94 | 0.57
4 | CN1CC(=O)N2[C@H](c3ccc4c(c3)OCO4)c3[nH]c4ccccc4c3C[C@@H]2C1=O [Tadalafil] | 0.88 | 1.03 | 1.14 | 1.5 | 1.09 | 1.54
5 | CN(C)[C@@H]1C(O)=C(C(N)=O)C(=O)[C@@]2(O)C(O)=C3C(=O)c4c(O)ccc(Cl)c4[C@@](C)(O)[C@H]3C[C@@H]12 [Chlortetracycline HCl] | 1.03 | 0.88 | 0.58 | 0.67 | 0.85 | 0.85
6 | C[C@@H]1CCN(C(=O)CC#N)C[C@@H]1N(C)c1ncnc2[nH]ccc12 | 0.79 and 0.8 | 0.66 and 0.75 | 0.88 and 0.85 | 0.97 and 0.55 | 0.87 and 0.7 | 1.06 and 0.75
7 | Cn1ccnc1S [Methimazole] | 1.11 | 1.15 | 0.96 | 0.85 | 0.81 | 0.66
8 | CC1=NN(c2ccc(C)c(C)c2)C(=O)/C1=N\Nc1cccc(-c2cccc(C(=O)O)c2)c1O [Eltrombopag Olamine] | 0.76 | 0.8 | 0.73 | 1.05 | 0.96 | 0.8
9 | COc1cc(OC)c(C(=O)CCCN2CCCC2)c(OC)c1 [Buflomedil HCl] | 0.96 | 1.02 | 1.07 | 1.01 | 1.19 | 1.05
10 | CCCN(CCC)S(=O)(=O)c1ccc(C(=O)O)cc1 [Probenecid] | 0.86 | 0.7 | 0.61 | 0.54 | 0.83 | 0.68
11 | C[C@H]1O[C@@H](O[C@H]2[C@@H](O)C[C@H](O[C@H]3[C@@H](O)C[C@H](O[C@H]4CC[C@@]5(C)[C@H](CC[C@@H]6[C@@H]5C[C@@H](O)[C@]5(C)[C@@H](C7=CC(=O)OC7)CC[C@]65O)C4)O[C@@H]3C)O[C@@H]2C)C[C@H](O)[C@@H]1O [Digoxin] | 0.76 | 0.71 | 0.56 | 0.94 | 0.7 | 0.65
12 | FC(F)(F)C(Cl)Br (stereo not drawn) [Halothane] | 1.13 | 1.42 | 0.89 | 1.2 | 0.97 | 1.21
13 | OCCOc1ccc(/C(=C(/CCCl)c2ccccc2)c2ccccc2)cc1 [Ospemifene] | 0.76 | 0.76 | 0.78 | 0.68 | 0.68 | 0.87
14 | Cc1cn([C@H]2C[C@H](N=[N+]=[N-])[C@@H](CO)O2)c(=O)[nH]c1=O [Zidovudine] | 0.9 | 0.74 | 1 | 1.02 | 0.71 | 1.04
15 | CN(C)CCCN1c2ccccc2Sc2ccc(Cl)cc21 [Chlorpromazine HCl] | 0.84 | 0.84 | 0.97 | 1.27 | 1.26 | 1.15
16 | CC[C@H](C)[C@H](N)C1=N[C@H](C(=O)N[C@@H](CC(C)C)C(=O)N[C@H](CCC(=O)O)C(=O)N[C@H](C(=O)N[C@H]2CCCCNC(=O)[C@H](CC(N)=O)NC(=O)[C@@H](CC(=O)O)NC(=O)[C@H](Cc3cnc[nH]3)NC(=O)[C@@H](Cc3ccccc3)NC(=O)[C@H]([C@@H](C)CC)NC(=O)[C@@H](CCCN)NC2=O)[C@@H](C)CC)CS1 [Bacitracin] | 0.88 | 0.82 | 0.45 | 0.7 | 0.65 | 1.01
17 | NCC(=O)CCC(=O)O [5-Aminolevulinic acid HCl] | 0.9 | 1.03 | 1.24 | 1.06 | 1.22 | 1.29
18 | COc1ccc2cccc(CCNC(C)=O)c2c1 [Agomelatine] | 0.77 | 0.5 | 0.55 | 0.78 | 0.75 | 0.82
19 | Cc1cc(C)nc(NS(=O)(=O)c2ccc(N)cc2)n1 [Sulfamethazine] | 0.91 | 1.07 | 1.05 | 0.98 | 0.8 | 1.02
20 | C=C1/C(=C\C=C2/CCC[C@]3(C)[C@@H]([C@H](C)CCCC(C)C)CC[C@@H]23)C[C@@H](O)C[C@@H]1O [Alfacalcidol] | 1.28 | 0.81 | 0.71 | 0.88 | 0.79 | 1.15
21 | Cc1[nH]c(/C=C2\C(=O)Nc3ccccc32)c(C)c1CCC(=O)O [Orantinib (TSU-68, SU6668)] | 0.88 | 0.69 | 1.15 | 1.25 | 0.91 | 0.88
22 | C[C@H]1C[C@H]2[C@@H]3CCC4=CC(=O)C=C[C@]4(C)[C@H]3C(=O)C[C@]2(C)[C@@]1(O)C(=O)CO [Meprednisone] | 1 | 1.44 | 1.26 | 0.69 | 0.88 | 0.92
23 | Cn1cnc([N+](=O)[O-])c1Sc1ncnc2[nH]cnc12 [Azathioprine] | 0.93 | 1.3 | 1.44 | 0.83 | 1.13 | 1.09

Single records (already shown). Order of values: growth (C. auris AR-384; 1 µM)	growth (C. auris AR-384; 10 µM)	growth (C. auris AR-386; 1 µM)	growth (C. auris AR-386; 10 µM)	growth (C. auris AR-387; 1 µM)	growth (C. auris AR-387; 10 µM)
`CC1=NN(c2ccc(C)c(C)c2)C(=O)/C1=N\Nc1cccc(-c2cccc(C(=O)O)c2)c1O` [Eltrombopag Olamine] reads 0.76	0.8	0.73	1.05	0.96	0.8
`C[C@H]1C[C@H]2[C@@H]3CCC4=CC(=O)C=C[C@]4(C)[C@H]3C(=O)C[C@]2(C)[C@@]1(O)C(=O)CO` [Meprednisone] reads 1	1.44	1.26	0.69	0.88	0.92
